These results are taken from PMC7819943, “Rice protein-binding microarrays: a tool to detect cis-acting elements near promoter regions in rice”.

The chains behind the UniProt entries cited, without tags or fusion partners.
UniProt Q0JBA9, entry or part of it: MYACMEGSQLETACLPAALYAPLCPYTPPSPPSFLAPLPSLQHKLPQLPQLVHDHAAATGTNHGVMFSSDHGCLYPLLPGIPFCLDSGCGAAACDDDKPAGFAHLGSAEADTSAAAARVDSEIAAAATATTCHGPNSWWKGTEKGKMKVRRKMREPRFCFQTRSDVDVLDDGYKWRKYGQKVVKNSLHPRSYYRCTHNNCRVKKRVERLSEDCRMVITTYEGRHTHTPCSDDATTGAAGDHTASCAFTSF

The other results are listed elsewhere or left out.

The target in this test is OsWRKY34 (Oryza sativa, UniProt Q0JBA9 1-250). The experiment in a line: protein-binding microarray (RPBM); PBS, 2% BSA, 51.3 ng/ul salmon testes DNA, 50 uM zinc acetate, 200 nM TF, 25 C, 1 h; high values mean tight binding. Particulars: protein: recombinant; tags: N-terminal polyhistidine and DsRed monomer fusion (pET32a); label: CyDye5-dUTP incorporated in the synthesized complementary strand; 3' TTTTT single-stranded linker to array surface; dsDNA, one strand shown. Summed up:
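The binding signal is fluorescence intensity per feature, in arbitrary units, read on an Axon 4000B scanner. Polyhistidine- and DsRed-tagged transcription factors (N-terminal fusions) from E. coli BL21-CodonPlus were purified on Ni–NTA and applied at 200 nM for 1 h at 25 °C to a double-stranded, BSA-blocked custom Agilent array in buffer with 50 µM zinc acetate.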
Consider “GGTTTTCATGGTGCTGTGGATGTTCACTAGCTTTGGAGGGCGGAGTCACCTAGTGCAG”, for which the binding signal is 10900 fluorescence intensity (a.u.).
On to “CCCTCGCACGCCACCGGACGAACACCTCGCCGACAACCTTCGGAGTCACCTAGTGCAG”, for which the binding signal was 8840 fluorescence intensity (a.u.).
With “TGTTATTGTCAAAATTTTGGCATAGTTAATGATTTCTTATCGGAGTCACCTAGTGCAG”, the binding signal was 8160 fluorescence intensity (a.u.).
With “TCTAAGACTGAATCTGAACCGTTGACTACCTAGATTCGTACGGAGTCACCTAGTGCAG”, the binding signal is 10300 fluorescence intensity (a.u.).
For the sequence “CTCGGCCGCACCACCCACAAGACATGTCATCGCTGCTCCGCGGAGTCACCTAGTGCAG”, the binding signal is 8620 fluorescence intensity (a.u.).
As for “ATCAGTTTGTAACCCCTACAATTTGTTGTTTATTCTCATACGGAGTCACCTAGTGCAG”, the figure is 8130 fluorescence intensity (a.u.); as for “ATCTTTCTTTGGCCAGCCCAAACAGCTCTTGCTGCAGTCACGGAGTCACCTAGTGCAG”, 8420 fluorescence intensity (a.u.).
For the sequence “TGTGATGTTTCTGTGAATTGGATTTGATTTGATTATACTGCGGAGTCACCTAGTGCAG”, the binding signal is 8350 fluorescence intensity (a.u.).
As for “CCCCATCTGTATTTTAAATTTATATCCGCCACTGATTGTACGGAGTCACCTAGTGCAG”, the figure is 9800 fluorescence intensity (a.u.); as for “ACATCCTTCAGTCCTCCACCGTTAAGGAACAAGGACATATCGGAGTCACCTAGTGCAG”, 9420 fluorescence intensity (a.u.); as for “GAATATCCTTTGCCTTTCGTTTTTCTTTTTCCGTATGAAACGGAGTCACCTAGTGCAG”, 9320 fluorescence intensity (a.u.).
On to “TGCACATGTCTGATCGATTGAGCATTCTAGGTCCGGCAATCGGAGTCACCTAGTGCAG”, for which the binding signal was 9110 fluorescence intensity (a.u.).
“ATCGTTTCCCGTCACTGCCAGATAGCGACACCTCTTTTTGCGGAGTCACCTAGTGCAG”: the binding signal was 9600 fluorescence intensity (a.u.).
As for “CCCATTGCTGTCTCTACCATGTGTCATCTTCCAATAAGCACGGAGTCACCTAGTGCAG”, the figure is 13800 fluorescence intensity (a.u.).
For “GGTTCAAATTAACTTTTCAATCTTGGCTGTGTTTGGATCCCGGAGTCACCTAGTGCAG”, the binding signal is 9630 fluorescence intensity (a.u.).
In the case of “CGGTGGGTAGGGTGAAAAGATTCCATGGGTAGAAGGAGTACGGAGTCACCTAGTGCAG”, the binding signal was 9010 fluorescence intensity (a.u.).
For “AGCTACTACCTCTGTCTTATAGCAAGTTTAGTTTTAGTTACGGAGTCACCTAGTGCAG”, the binding signal is 11400 fluorescence intensity (a.u.).
As for “CCCTCCGTTTCAAAATGTTTGACACCGTTGACTTTTTAGCCGGAGTCACCTAGTGCAG”, the figure is 28700 fluorescence intensity (a.u.); as for “GTTATATACTAGATCCGCTCGCCTTGTCCATCACCACCGACGGAGTCACCTAGTGCAG”, 8570 fluorescence intensity (a.u.).
With “GGTTGACTGCTCTCTGAAATTAATTTTATTCGTTTAGTTACGGAGTCACCTAGTGCAG”, the binding signal is 10900 fluorescence intensity (a.u.).
Regarding “GTCAGCGTACATCCATTGCCGATCCATCTACATGAGTCAACGGAGTCACCTAGTGCAG”, the binding signal is 8510 fluorescence intensity (a.u.).
Turning to “CTATTGCTTCCTTTGCACCGCCTCCTCCTTAGTGTCATTGCGGAGTCACCTAGTGCAG”, the binding signal is 10300 fluorescence intensity (a.u.).
“ATTTCCGTTTCTAAATTGACACATCGGCTACTCACTTATGCGGAGTCACCTAGTGCAG”: the binding signal was 10800 fluorescence intensity (a.u.).
Take “GTCATCAGTATATATATACCATCGCTGTCTGTTTTGTAGTCGGAGTCACCTAGTGCAG”: the binding signal is 8460 fluorescence intensity (a.u.).
For “AGTCCGTCGGTTAAGTGTTGGCCCGAACCAATGTCGGAATCGGAGTCACCTAGTGCAG”, the binding signal was 8220 fluorescence intensity (a.u.).
In the case of “ATACTTAATTTTGGGCTTTCCTATTTTCCGGCCATTTTACCGGAGTCACCTAGTGCAG”, the binding signal was 11500 fluorescence intensity (a.u.).
As for “GGGGTCTCTGATAGTCTGATTTTTTTGTCCTTTCTCATCACGGAGTCACCTAGTGCAG”, the figure is 10600 fluorescence intensity (a.u.); as for “CTTCATTGCTTCCTGTTTCCTAGCATCTCTTGTTTTCAGTCGGAGTCACCTAGTGCAG”, 9110 fluorescence intensity (a.u.).
Take “GCTTTCTTTTAGCTATATACTCTATCCGTTTTAGGTTATACGGAGTCACCTAGTGCAG”: the binding signal was 8940 fluorescence intensity (a.u.).
As for “CCGGTAGTCCAATCACTAGATATATTGTGTCTTTTTATTACGGAGTCACCTAGTGCAG”, the binding signal is 9810 fluorescence intensity (a.u.).
Take “GCATGTAATTTAGAGGCTTTTAGTTTTCTTTGTTCATATTCGGAGTCACCTAGTGCAG”: the binding signal was 9200 fluorescence intensity (a.u.).
With “TTTTCCTCAAAACTGTTGCTTAGACCATTCTCTTCTTTCCCGGAGTCACCTAGTGCAG”, the binding signal is 8090 fluorescence intensity (a.u.).
For “ACTCATCTCTGTAAATGTACACCTTTGCCCTTTTAACCTTCGGAGTCACCTAGTGCAG” the value was 9780 fluorescence intensity (a.u.).
For “ATATTATGTCATTTTCTAATATTTACGTCTTTTCTTTCTTCGGAGTCACCTAGTGCAG”, the binding signal is 12100 fluorescence intensity (a.u.).
As for “TTCTTCCGCACCCACCGTTGTTTTGACCCTGTTTTCACAACGGAGTCACCTAGTGCAG”, the figure is 9130 fluorescence intensity (a.u.); as for “GTACAGGGGCCGCTCCTTCTTCGTCTTCTTGGGCTTCTCCCGGAGTCACCTAGTGCAG”, 10400 fluorescence intensity (a.u.); as for “TCTCCTTTGTATCATCACCCGCCGCTATAAAAGCATAACCCGGAGTCACCTAGTGCAG”, 8690 fluorescence intensity (a.u.).
Take “CGGGTTCGTTGGGTTTTATCTATATAGGCGGCGAGCGAGACGGAGTCACCTAGTGCAG”: the binding signal is 12300 fluorescence intensity (a.u.).
For “CGGCCACGGCCGACACACACAGCCAGATCCATCGCCTCGCCGGAGTCACCTAGTGCAG”, the binding signal was 8490 fluorescence intensity (a.u.).
Take “CAATCACAAGCTATACCTGGACGGTTTCTCTATATTTTTTCGGAGTCACCTAGTGCAG”: the binding signal was 9850 fluorescence intensity (a.u.).
As for “TATAACCATTACGTACTCCACGACAGCTCCTCTGCGACGCCGGAGTCACCTAGTGCAG”, the figure is 8220 fluorescence intensity (a.u.).
With “TTTGTGTAACCGATATGTGGGCCCCACATATTTTATTATTCGGAGTCACCTAGTGCAG”, the binding signal was 9030 fluorescence intensity (a.u.).
